In test [1] the target is Poly (ADP-ribose) polymerase 1 (PARP1), endogenous in 143B cells (human (endogenous in 143B)) (UniProt P09874). The test is described as follows: affinity purification with mass spectrometry; co-IP from 143B lysate with anti-PARP1 antibody (IgG as control), protein A/G magnetic beads; SDS-PAGE, silver staining, band at about 80 kDa analysed by mass spectrometry.
The target of test [2] is Human recombinant his-tagged PARP1 protein (human) (UniProt P09874). The test is described as follows: affinity purification with mass spectrometry; his-tagged PARP1 held on Ni-NTA magnetic agarose beads, incubated overnight in the cold room with whole proteins of 143B cells; SDS-PAGE, silver staining, band at about 80 kDa analysed by mass spectrometry; his-tagged HSA as control; only the target purified.

Protein sequences, listed by entry. Tags and fused reporters are not part of them.
UniProt P09874: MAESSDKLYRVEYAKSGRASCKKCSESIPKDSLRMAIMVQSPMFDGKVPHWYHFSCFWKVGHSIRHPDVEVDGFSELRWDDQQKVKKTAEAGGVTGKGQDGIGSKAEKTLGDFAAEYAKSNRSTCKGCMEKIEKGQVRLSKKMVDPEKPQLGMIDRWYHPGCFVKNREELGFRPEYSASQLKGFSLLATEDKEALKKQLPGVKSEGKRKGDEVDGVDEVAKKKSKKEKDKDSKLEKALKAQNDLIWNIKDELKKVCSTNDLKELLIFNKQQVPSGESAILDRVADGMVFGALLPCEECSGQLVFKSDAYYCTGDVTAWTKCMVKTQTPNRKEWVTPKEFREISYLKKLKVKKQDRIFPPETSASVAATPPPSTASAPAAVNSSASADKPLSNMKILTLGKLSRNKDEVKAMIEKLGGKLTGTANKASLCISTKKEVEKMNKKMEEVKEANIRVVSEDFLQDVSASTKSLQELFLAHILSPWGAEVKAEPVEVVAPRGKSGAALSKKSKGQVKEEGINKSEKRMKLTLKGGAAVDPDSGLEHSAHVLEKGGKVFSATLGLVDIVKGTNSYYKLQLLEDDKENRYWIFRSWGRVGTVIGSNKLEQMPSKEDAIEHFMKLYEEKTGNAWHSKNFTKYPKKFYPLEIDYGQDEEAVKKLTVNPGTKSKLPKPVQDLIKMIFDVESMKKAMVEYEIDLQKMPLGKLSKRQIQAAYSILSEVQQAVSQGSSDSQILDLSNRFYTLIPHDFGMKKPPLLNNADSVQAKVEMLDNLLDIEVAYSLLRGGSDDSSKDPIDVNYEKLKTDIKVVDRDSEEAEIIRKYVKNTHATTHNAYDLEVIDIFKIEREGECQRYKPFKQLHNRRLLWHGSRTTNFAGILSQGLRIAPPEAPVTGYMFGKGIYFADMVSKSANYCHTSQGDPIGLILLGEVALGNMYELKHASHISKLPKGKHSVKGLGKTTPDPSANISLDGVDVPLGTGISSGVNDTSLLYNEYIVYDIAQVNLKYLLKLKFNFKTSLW
UniProt P15311: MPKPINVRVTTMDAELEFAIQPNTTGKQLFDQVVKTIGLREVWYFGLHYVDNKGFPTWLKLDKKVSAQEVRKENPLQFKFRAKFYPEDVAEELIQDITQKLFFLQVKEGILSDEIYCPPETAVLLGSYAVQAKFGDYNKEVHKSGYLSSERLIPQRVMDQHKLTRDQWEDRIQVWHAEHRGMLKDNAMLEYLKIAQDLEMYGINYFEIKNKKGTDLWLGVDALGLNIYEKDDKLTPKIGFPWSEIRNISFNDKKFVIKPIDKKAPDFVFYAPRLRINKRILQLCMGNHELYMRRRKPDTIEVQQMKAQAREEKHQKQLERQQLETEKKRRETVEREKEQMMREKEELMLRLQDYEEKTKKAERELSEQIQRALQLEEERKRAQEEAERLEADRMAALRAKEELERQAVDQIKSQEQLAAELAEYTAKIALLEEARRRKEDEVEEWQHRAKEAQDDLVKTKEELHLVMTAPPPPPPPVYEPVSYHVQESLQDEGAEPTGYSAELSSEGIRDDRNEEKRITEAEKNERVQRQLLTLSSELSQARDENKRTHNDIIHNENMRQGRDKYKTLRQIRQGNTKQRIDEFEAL

This passage reports binding results from article PMC8771856.

Results are given in words; binding and its absence hold for the method and conditions named. In cells and extracts the contact can be indirect. A yes stands for co-enrichment or nearness to the bait. Other partners may have been found.

Consider “Ezrin, endogenous in 143B cells (from UniProt P15311 1-586)”, for which the binding result in test [1] and in test [2] was “binds” throughout.
